Source: the supplement of paper PMC6411743
± gives the standard deviation of the averaged measurements. The list shows a part of the results, in another mix than the full data. Small differences around the control level are noise.

Chains of the proteins cited; added tags and fusions are not shown. Lines headed by an entry give the natural chain unless they say otherwise; changes in a name come on top.
UniProt Q9NUA8: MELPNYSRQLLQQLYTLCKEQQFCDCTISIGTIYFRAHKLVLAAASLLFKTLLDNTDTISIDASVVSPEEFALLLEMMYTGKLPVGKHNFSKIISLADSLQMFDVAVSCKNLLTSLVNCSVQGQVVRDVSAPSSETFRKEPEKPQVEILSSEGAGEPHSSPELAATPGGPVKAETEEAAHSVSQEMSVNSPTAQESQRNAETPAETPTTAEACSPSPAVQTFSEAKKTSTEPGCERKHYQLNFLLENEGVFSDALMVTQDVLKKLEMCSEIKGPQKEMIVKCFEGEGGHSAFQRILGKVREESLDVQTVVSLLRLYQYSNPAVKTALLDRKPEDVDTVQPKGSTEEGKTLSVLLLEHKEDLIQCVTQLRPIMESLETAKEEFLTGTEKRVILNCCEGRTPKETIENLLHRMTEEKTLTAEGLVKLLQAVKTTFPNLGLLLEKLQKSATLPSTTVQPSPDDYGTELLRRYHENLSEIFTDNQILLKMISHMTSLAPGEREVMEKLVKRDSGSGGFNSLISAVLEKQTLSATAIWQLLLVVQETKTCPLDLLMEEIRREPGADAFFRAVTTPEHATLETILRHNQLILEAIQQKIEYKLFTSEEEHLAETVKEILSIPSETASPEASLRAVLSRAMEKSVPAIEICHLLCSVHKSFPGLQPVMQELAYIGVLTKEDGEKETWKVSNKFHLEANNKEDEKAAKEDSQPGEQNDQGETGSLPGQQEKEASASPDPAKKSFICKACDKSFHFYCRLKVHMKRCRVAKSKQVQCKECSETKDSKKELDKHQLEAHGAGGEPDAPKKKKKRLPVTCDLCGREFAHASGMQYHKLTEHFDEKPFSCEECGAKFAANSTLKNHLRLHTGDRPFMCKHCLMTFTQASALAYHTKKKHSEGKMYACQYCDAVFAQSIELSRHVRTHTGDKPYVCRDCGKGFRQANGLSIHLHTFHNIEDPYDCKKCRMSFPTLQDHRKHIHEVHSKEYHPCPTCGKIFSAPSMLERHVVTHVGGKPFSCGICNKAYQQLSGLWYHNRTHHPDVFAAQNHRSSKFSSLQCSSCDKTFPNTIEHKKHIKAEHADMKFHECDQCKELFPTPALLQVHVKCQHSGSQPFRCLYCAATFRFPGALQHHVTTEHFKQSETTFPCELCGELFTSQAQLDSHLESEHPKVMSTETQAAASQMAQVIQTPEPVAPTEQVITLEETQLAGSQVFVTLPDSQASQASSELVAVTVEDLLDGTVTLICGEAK
UniProt Q9NRW1: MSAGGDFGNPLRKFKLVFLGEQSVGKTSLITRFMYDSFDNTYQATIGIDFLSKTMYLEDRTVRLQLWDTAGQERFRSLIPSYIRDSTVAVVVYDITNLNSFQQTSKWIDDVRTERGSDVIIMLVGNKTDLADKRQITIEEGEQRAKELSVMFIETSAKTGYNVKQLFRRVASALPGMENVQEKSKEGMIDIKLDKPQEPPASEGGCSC
UniProt Q9NZ32, whole entry: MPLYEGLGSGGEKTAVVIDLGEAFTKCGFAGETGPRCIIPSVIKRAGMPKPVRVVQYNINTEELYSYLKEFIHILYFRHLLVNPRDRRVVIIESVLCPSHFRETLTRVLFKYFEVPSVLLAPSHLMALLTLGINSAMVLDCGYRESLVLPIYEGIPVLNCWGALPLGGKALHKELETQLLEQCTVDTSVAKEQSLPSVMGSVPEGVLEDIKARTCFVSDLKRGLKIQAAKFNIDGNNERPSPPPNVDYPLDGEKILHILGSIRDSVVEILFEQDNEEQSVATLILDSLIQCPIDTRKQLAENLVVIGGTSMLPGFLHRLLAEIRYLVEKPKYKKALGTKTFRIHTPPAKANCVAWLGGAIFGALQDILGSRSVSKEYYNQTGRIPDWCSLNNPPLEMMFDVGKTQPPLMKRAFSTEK
UniProt Q9NR28: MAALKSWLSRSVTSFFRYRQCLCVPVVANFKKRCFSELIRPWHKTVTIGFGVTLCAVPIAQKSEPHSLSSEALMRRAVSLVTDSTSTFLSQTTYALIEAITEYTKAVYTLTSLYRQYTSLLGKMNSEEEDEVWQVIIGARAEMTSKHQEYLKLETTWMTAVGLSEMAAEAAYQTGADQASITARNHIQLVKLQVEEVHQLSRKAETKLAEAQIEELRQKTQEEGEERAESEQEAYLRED
UniProt Q9NTX5: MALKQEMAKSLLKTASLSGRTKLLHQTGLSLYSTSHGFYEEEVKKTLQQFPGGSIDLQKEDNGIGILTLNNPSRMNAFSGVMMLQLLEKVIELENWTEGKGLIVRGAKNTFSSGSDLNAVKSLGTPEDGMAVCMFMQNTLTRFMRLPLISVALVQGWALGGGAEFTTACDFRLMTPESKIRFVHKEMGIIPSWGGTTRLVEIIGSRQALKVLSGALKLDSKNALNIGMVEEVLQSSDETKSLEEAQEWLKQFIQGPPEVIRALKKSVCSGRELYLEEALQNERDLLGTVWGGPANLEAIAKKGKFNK
UniProt Q9NWY4: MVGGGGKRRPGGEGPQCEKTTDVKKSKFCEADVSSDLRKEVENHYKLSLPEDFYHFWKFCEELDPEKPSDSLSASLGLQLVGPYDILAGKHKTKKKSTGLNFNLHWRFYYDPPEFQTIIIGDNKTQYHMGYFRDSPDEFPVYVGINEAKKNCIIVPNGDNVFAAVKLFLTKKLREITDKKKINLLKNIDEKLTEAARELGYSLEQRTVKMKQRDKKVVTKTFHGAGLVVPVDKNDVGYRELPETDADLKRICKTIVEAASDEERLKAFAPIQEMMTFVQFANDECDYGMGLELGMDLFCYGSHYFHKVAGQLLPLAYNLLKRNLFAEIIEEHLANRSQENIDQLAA
UniProt Q9NXV2: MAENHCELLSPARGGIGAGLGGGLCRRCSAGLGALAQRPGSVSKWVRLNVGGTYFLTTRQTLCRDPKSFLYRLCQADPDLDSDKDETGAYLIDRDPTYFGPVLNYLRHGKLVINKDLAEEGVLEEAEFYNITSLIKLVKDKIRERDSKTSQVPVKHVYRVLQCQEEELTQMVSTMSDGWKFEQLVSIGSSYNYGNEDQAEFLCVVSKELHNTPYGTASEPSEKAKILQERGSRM
UniProt Q9P0P0: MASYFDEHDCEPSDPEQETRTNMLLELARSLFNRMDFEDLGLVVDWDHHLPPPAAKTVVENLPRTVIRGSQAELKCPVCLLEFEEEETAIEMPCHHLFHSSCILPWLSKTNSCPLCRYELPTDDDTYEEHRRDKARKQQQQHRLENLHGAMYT
UniProt Q9NZ63: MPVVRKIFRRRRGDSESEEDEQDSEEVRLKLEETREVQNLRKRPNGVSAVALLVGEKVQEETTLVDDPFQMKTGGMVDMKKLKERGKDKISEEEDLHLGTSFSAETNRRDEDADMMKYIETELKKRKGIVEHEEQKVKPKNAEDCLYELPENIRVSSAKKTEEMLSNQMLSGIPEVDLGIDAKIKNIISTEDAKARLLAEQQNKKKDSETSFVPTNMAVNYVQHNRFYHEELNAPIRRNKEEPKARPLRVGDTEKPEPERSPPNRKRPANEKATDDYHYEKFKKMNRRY
UniProt Q9NSK0: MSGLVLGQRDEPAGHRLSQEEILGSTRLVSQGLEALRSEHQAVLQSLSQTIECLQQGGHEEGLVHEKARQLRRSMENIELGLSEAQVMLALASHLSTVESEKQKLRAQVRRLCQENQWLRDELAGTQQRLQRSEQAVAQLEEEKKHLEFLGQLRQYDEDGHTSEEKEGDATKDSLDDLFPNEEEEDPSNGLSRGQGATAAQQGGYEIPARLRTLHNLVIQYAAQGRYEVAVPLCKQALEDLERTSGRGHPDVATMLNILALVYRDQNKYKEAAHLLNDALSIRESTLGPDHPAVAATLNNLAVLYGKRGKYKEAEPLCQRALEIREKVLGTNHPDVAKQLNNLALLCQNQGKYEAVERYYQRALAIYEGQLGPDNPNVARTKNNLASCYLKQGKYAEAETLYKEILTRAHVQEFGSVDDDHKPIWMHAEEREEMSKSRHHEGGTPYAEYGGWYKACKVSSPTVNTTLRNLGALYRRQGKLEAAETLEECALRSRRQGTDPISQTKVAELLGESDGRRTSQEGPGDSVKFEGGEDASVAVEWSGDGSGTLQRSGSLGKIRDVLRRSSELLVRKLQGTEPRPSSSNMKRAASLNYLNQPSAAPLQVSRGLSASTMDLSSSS
UniProt Q9P0W2: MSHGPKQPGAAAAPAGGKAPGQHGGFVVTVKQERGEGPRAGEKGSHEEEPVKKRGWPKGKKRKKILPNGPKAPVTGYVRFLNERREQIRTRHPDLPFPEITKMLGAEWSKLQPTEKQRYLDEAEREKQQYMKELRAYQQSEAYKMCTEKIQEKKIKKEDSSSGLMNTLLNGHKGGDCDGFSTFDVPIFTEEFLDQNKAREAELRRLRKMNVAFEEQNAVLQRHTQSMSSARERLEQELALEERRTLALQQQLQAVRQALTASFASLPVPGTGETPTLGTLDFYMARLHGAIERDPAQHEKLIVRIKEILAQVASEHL
UniProt Q9NRF9: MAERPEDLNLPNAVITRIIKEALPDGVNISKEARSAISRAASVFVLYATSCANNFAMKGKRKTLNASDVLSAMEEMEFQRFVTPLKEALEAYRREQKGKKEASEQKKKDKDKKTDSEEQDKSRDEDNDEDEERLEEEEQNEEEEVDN
UniProt Q9NXW9: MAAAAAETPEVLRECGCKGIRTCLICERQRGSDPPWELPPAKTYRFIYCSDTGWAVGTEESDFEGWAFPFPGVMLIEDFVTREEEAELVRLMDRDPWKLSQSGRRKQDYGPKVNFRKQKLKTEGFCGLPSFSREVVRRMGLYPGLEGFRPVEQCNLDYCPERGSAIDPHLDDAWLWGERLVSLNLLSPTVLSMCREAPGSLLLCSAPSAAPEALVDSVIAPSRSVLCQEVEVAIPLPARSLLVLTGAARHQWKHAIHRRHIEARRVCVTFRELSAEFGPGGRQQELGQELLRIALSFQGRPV
UniProt Q9NPJ3: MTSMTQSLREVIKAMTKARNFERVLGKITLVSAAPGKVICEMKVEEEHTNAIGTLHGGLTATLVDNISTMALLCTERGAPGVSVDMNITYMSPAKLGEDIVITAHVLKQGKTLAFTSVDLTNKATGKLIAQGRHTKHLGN
UniProt Q9NRB3: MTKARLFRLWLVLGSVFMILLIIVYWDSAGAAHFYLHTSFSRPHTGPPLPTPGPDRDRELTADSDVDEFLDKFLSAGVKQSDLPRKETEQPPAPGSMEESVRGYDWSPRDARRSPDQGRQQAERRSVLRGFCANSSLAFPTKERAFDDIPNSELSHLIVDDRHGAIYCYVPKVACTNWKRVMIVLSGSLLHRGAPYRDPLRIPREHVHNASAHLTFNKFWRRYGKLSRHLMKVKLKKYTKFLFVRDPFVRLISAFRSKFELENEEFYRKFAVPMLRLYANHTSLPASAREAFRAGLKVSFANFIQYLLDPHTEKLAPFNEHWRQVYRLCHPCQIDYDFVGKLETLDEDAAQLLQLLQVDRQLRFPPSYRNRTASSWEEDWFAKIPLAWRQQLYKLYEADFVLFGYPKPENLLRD
UniProt Q9NVG8: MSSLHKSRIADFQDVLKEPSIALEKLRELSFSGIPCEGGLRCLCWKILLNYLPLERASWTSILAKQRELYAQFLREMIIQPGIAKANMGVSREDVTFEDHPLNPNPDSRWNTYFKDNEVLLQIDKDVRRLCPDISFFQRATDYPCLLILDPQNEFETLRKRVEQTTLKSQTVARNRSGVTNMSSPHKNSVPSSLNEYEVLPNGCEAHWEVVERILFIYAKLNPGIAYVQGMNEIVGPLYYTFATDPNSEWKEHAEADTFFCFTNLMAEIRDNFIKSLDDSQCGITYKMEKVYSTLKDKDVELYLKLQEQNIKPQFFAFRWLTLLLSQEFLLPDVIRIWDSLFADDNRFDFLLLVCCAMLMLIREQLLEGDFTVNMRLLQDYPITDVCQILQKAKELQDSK
UniProt Q9NR45: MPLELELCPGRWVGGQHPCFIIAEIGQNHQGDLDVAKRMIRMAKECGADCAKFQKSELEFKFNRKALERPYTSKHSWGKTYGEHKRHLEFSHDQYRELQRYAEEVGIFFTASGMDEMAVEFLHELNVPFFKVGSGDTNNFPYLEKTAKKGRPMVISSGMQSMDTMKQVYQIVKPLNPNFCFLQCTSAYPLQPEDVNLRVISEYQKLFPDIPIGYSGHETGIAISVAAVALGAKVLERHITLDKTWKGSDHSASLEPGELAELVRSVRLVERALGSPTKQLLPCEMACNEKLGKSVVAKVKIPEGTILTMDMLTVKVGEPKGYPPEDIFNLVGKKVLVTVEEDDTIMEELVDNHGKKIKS
UniProt Q9NW68: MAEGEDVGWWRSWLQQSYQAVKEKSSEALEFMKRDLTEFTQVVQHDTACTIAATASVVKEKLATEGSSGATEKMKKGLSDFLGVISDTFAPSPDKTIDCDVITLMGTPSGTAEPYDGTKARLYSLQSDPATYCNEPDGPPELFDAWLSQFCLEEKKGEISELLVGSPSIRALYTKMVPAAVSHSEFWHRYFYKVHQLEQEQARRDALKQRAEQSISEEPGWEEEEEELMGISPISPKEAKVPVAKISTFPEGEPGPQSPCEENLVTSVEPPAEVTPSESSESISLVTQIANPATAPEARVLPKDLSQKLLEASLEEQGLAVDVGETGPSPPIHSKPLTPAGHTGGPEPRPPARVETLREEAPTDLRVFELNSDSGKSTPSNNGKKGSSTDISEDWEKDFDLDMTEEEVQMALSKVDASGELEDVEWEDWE

Compound: Nc1ncnc2c1ncn2[C@@H]1O[C@H](COP(=O)(O)OP(=O)(O)OP(=O)(O)O)[C@@H](O)[C@H]1O [adenosine triphosphate]
Assay: NP40-soluble protein abundance relative to vehicle (solubility fold change) (ratio); higher = more soluble protein in presence of ATP
Procedure, shortened: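 Each value is a fold change relative to the detergent-processed vehicle, calculated per replicate from vsn-normalised intensities. Jurkat crude lysate received eight concentrations (0.1 to 10 mM) for 10 min at room temperature and 3 min at 37 °C, then was solubilised in 0.8% NP40 with benzonase (60 min, 4 °C). The ultracentrifuged supernatant was TMT-labelled and run by LC-MS/MS in three independent experiments.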

Row | Target | NP40-soluble protein abundance (concentration: 0.1mM) | NP40-soluble protein abundance (concentration: 0.5mM)
1 | Q9NPA5 and related entries (UniProt Q9NTW7) | 1.02 ± 0.039 | 1 ± 0.052
2 | UniProt Q9P0U4 and related entries | 1.02 ± 0.029 | 1.01 ± 0.041
3 | IMPAD1 (UniProt Q9NX62) | 0.979 ± 0.032 | 1.01 ± 0.045
4 | UniProt Q9NYP9 | 1.02 ± 0.028 | 1.01 ± 0.046
5 | ZBTB40 (UniProt Q9NUA8) | 1.03 ± 0.042 | 0.995 ± 0.054
6 | VPS45 (UniProt Q9NRW7) | 1.02 ± 0.1 | 1.01 ± 0.03
7 | FARSB (UniProt Q9NSD9) | 1.03 ± 0.065 | 1.02 ± 0.062
8 | UniProt Q9NW75 and related entries | 1.06 ± 0.02 | 1.16 ± 0.2
9 | UniProt Q9NRW1 | 1.03 ± 0.084 | 1.01 ± 0.081
10 | ACTR10 (UniProt Q9NZ32) | 0.999 ± 0.025 | 0.998 ± 0.046
11 | AATF (UniProt Q9NY61) | 1.04 ± 0.045 | 1.07 ± 0.11
12 | UCKL1 (UniProt Q9NWZ5) | 1.03 ± 0.012 | 1.01 ± 0.047
13 | UniProt Q9NR28 and related entries | 0.901 ± 0.059 | 0.89 ± 0.059
14 | SERINC1 (UniProt Q9NRX5) | 1.01 ± 0.021 | 0.934 ± 0.12
15 | UniProt Q9NTX5 and related entries | 0.99 ± 0.034 | 0.994 ± 0.035
16 | UniProt Q9NPI1 and related entries | 1.01 ± 0.062 | 1.12 ± 0.051
17 | UniProt Q9P0I2 | 1.05 ± 0.064 | 1.08 ± 0.057
18 | UniProt Q9NWY4 | 1.03 ± 0.072 | 1.04 ± 0.065
19 | KCTD5 (UniProt Q9NXV2) | 0.98 ± 0.074 | 0.969 ± 0.11
20 | UniProt Q9NXN4 and related entries | 0.991 ± 0.079 | 0.97 ± 0.048

Numbers 7–10 of the list above:
Row | Target | NP40-soluble protein abundance (concentration: 0.1mM) | NP40-soluble protein abundance (concentration: 0.5mM)
7 | FARSB (UniProt Q9NSD9) | 1.03 ± 0.065 | 1.02 ± 0.062
8 | UniProt Q9NW75 and related entries | 1.06 ± 0.02 | 1.16 ± 0.2
9 | UniProt Q9NRW1 | 1.03 ± 0.084 | 1.01 ± 0.081
10 | ACTR10 (UniProt Q9NZ32) | 0.999 ± 0.025 | 0.998 ± 0.046

(further entries)

Row | Target | NP40-soluble protein abundance (concentration: 0.1mM) | NP40-soluble protein abundance (concentration: 0.5mM)
21 | HIF1AN (UniProt Q9NWT6) | 1.01 ± 0.04 | 1.04 ± 0.055
22 | RNF181 (UniProt Q9P0P0) | 0.948 ± 0.066 | 0.941 ± 0.059
23 | TMEM106B (UniProt Q9NUM4) | 0.997 ± 0.081 | 0.96 ± 0.097
24 | ANLN (UniProt Q9NQW6) | 1.01 ± 0.013 | 0.998 ± 0.019
25 | C9orf78 (UniProt Q9NZ63) | 0.948 ± 0.013 | 0.9418 ± 0.0024
26 | KLC4 (UniProt Q9NSK0) | 0.961 ± 0.02 | 0.892 ± 0.027
27 | UniProt Q9NSY1 | 1.04 ± 0.051 | 1.139 ± 0.0098
28 | HMG20B (UniProt Q9P0W2) | 0.936 ± 0.054 | 0.939 ± 0.11
29 | ABHD10 (UniProt Q9NUJ1) | 1.01 ± 0.077 | 1.05 ± 0.052
30 | UniProt Q9NX55 | 0.985 ± 0.029 | 0.997 ± 0.029
31 | POLE3 (UniProt Q9NRF9) | 0.87 ± 0.21 | 0.859 ± 0.25
32 | ALKBH4 (UniProt Q9NXW9) | 1.02 ± 0.058 | 0.978 ± 0.044
33 | KCMF1 (UniProt Q9P0J7) | 0.957 ± 0.074 | 1 ± 0.081
34 | UniProt Q9NPJ3 | 0.983 ± 0.046 | 1.02 ± 0.058
35 | GIMAP4 (UniProt Q9NUV9) | 1.04 ± 0.051 | 1.05 ± 0.069
36 | UniProt Q9NVH0 and related entries | 1.03 ± 0.065 | 0.952 ± 0.07
37 | LANCL2 (UniProt Q9NS86) | 0.987 ± 0.048 | 0.992 ± 0.047
38 | ASF1B (UniProt Q9NVP2) | 1.02 ± 0.055 | 1.07 ± 0.044
39 | TMOD2 (UniProt Q9NZR1) | 0.904 ± 0.11 | 0.97 ± 0.089
40 | UniProt Q9NVM4 and related entries | 1.11 ± 0.063 | 1.04 ± 0.084

Row | Target | NP40-soluble protein abundance (concentration: 0.1mM) | NP40-soluble protein abundance (concentration: 0.5mM)
41 | UniProt Q9NSB8 and related entries | 1.11 ± 0.24 | 1.04 ± 0.11
42 | TERF2IP (UniProt Q9NYB0) | 0.99 ± 0.024 | 1.01 ± 0.02
43 | OCIAD1 (UniProt Q9NX40) | 0.999 ± 0.023 | 0.978 ± 0.021
44 | DMAP1 (UniProt Q9NPF5) | 0.946 ± 0.038 | 0.985 ± 0.037
45 | UTP6 (UniProt Q9NYH9) | 1.06 ± 0.12 | 0.955 ± 0.065
46 | NUDT4 (UniProt Q9NZJ9) | 1.06 ± 0.16 | 0.972 ± 0.1
47 | PFDN4 (UniProt Q9NQP4) | 0.896 ± 0.13 | 0.837 ± 0.14
48 | CHST12 (UniProt Q9NRB3) | 0.916 ± 0.047 | 0.882 ± 0.087
49 | TBC1D13 (UniProt Q9NVG8) | 1.08 ± 0.06 | 1.06 ± 0.08
50 | UniProt Q9NWU2 | 0.883 ± 0.12 | 0.843 ± 0.19
51 | NANS (UniProt Q9NR45) | 1.04 ± 0.069 | 1.05 ± 0.084
52 | UniProt Q9P1W8 and related entries | 1.08 ± 0.13 | 0.951 ± 0.068
53 | ZDHHC18 (UniProt Q9NUE0) | 1.09 ± 0.085 | 1 ± 0.068
54 | UniProt Q9NW81 and related entries | 0.997 ± 0.049 | 1.004 ± 0.0068
55 | UniProt Q9NVM9 | 1.02 ± 0.026 | 1.04 ± 0.07
56 | GPCPD1 (UniProt Q9NPB8) | 1.04 ± 0.12 | 1.01 ± 0.11
57 | BSDC1 (UniProt Q9NW68) | 0.922 ± 0.036 | 0.898 ± 0.032
58 | AGPAT5 (UniProt Q9NUQ2) | 1.07 ± 0.068 | 1.03 ± 0.06
59 | UniProt Q9NUQ9 and related entries | 0.9731 ± 0.0089 | 0.988 ± 0.058
60 | UniProt Q9NSG2 and related entries | 1.01 ± 0.069 | 1.04 ± 0.02
